# For at least one compound, name, drawing or mass did not settle the structure.
# Tested on: WT A549 cells
# Test: Cell death assay, IncuCyte real-time imaging, dual dye
# Format: cell-based
# Conditions: SP600125 25 μM pre-treatment 2 hr, then AZA 25 or 50 μM for 60 hrs
# Method: Cell lines and viruses. Human A549 cells (ATCC® CCL-185™) validated by STR analysis were cultured in RPMI 1640 medium (Gibco) supplemented with 10% fetal bovine serum (FBS), 100U/ml penicillin and 100 μg/ml streptomycin. PC3, DU145 and C4-2 cells were grown in RPMI with 10% FBS. HAEC, BEAS 2B and BETA cells were grown in LHC-8 (Biofluids/Biosource, catalog #P141-500) supplemented with 0.1% epinehrin (Biofluids/Biosource, catalog #355-002), 3.3 mM retinoic acid (Biofluids/Biosource, catalog #348-001) and penicillin-streptomycin-fungizone (Invitogen, catalog #15240-062) and were a gift from Drs. Suzy Comhair and Serpil Erzurum (Cleveland Clinic).
# Cells (20,000 per well) were seeded in 24-well plates or 8,000 cells per well in 96-well plates and treated as stated in figure legends. The cells were incubated with 250 nM Sytox-Green dye (Thermo Fisher), a nucleic acid stain that is an indicator of dead cells and which is impermeant to live cells, and 250 nM of cell permeable dye Syto™ 60-Red (ThermoFisher), which allows quantification of the total number of cells present in each field, using an IncuCyte Live-Cell Imaging System and software (Essen Instruments 2015A) for 72 hours. Cell death was measured by counting the green objects per/well (dead cells, green) and then normalizing to the total number of cells per/well (red objects) at each time point using IncuCyte software.
smiles,measurement,value
Oc1c2ccccc2c2c3c(cccc13)N=N2 [SP600125],effect on apoptosis by AZA treatment (cell survival),suppressed apoptosis by AZA treatment

# — US20190002585A1, “CANCER TREATMENT METHODS AND COMPOSITIONS” (The Cleveland Clinic Foundation, priority 2017, published 2019)
